{"source": "PubChem BioAssay AID445", "about": "(National Center for Advancing Translational Sciences (NCATS), 2006)", "assay": "IkB Signaling", "conditions": "ABC-DLBCL IkBa-CBG/CBR dual luciferase ratio (green luciferase fused to IkBa over red control in OCI-Ly3 lymphoma cells), 4 h", "source_text": "NIH Molecular Libraries Screening Centers Network [MLSCN]\nNIH Chemical Genomics Center [NCGC]\nNuclear factor kappa-B (NF-kappa-B) plays an important role in normal B cell development and survival. Diffuse large B cell lymphoma (DLBCL) is the most commonly observed type of non-Hodgkin's lymphoma. Gene expression analysis has identified an activated B cell-like subtype of DLBCL (ABC-DLBCL) which expresses known NF-kappa-B target genes. […] However, targets upstream of IKK have been largely unexplored and so nodes upstream of IKK in the NF-kappa-B pathway remain untested due to the lack of chemical probes.\nA cell-sensor assay for I-kappa-B-alpha stabilization was developed with NIH investigator Dr. R. Eric Davis in Dr. Louis M. Staudt's laboratory. The assay uses green (CBG68) and red (CBR) emitting beetle luciferases [Chroma-Glo(TM) developed by Promega Corp.] where the green luciferase is fused to I-kappa-B-alpha and the red luciferase is present in its native state. Both luciferase genes are stably present in the OCI-Ly3 human ABC DLBCL cell line, but their expression is under the control of tetracycline-inducible promoters. Following the addition of doxycycline to induce expression of the luciferases, the green luminescence in control cultures rises only slowly because the CBG fusion partner I-kappa-B-alpha is targeted by IKK activity for rapid degradation. In contrast, green luminescence rises rapidly in the presence of proteasome inhibitors or IKK inhibitors. The rise in red luminescence of CBR is not affected by proteasome or IKK inhibitors, and serves as normalization for cell number and nonspecific effects. Compounds were screened as a concentration-titration series that ranged from 57 uM to 0.7 nM.\nNCGC Assay Protocol Summary:\nCells were seeded in 1536-well plates at 5000 cells/3ul in IMDM medium containing 0.5% FBS, w/o phenol red, L-glutamine, 25 mM HEPES, 3 mg/ml sodium bicarbonate. After centrifugation for 1 min. at 1000 rpm, 23 nl of compounds or DMSO were delivered to each well using a pin tool. Then 1ul 80ng/ml doxycycline was dispensed into white solid 1536-well plates and the plates were incubated at 37C/5% C02 in a cell incubator for 4 hrs. Then 4 ul Chroma-Glo luminescent substrate mix (Promega) was added to each well. The plate was incubated at R.T. for 10-15 min. The plates were measured on a ViewLux plate reader for green luminescence (540/20 nm filter) and red luminescence (618/8 nm filter). The green and red luminescent signals were corrected for red and green luminescence filter overlap using previously determined filter calibration constants (determined using the procedure outlined in the Promega Technical Manual). The %Activity was determined from the ratio of corrected green/red luminescent values. Green luminescent and ratio %Activity was determined by normalizing to the difference in signal between basal cells (0% Activity) and cells incubated with 10 uM of the proteasome inhibitor MG-132 (100% Activity). Red luminescent %Activity was normalized to the difference between red luminesence in basal cells (0%Activity) and zero luminescence (-100% Activity).\nConcentration-response curves were fitted to the signals arising from the green luminescence (I-kappa-B-alpha-luciferase fusion; IkB-luc) and the red luminescence (unfused luciferase; luc) as well as the calculated ratio. The concentration-effect curves were then classified based on curve quality (r2), response magnitude and degree of measured activity. Compounds were then categorized based on their concentration-response curves for all three datasets (Ikb-luc, luc and ratio).\nKeywords: IKK, I-kappa-B, IkB, IkBa, cytotoxicity, luminescence, MLSMR, MLSCN, NIH Roadmap, qHTS, NCGC", "key": {"[1]": {"conditions": "measured here: control luc red channel unless noted"}, "[2]": {"conditions": "measured here: IkB-luc green channel"}, "[3]": {"conditions": "measured here: control luc red channel"}}, "note": "The list shows a part of the results. The main result of the screen is listed elsewhere. These columns were measured beside it and carry no call. The list favours compounds with an active or inconclusive main result. The note in brackets gives the kind of curve behind each potency; many fits are weak.", "data": [{"compound": "O=C(CSc1nnc2c(Cl)cc(C(F)(F)F)cn12)Nc1ccc2c(c1)OCO2", "values": [{"measurement": "AC50", "setting": "[1]", "value": "25.1 µM [falling, single point]"}]}, {"compound": "COc1cccc(C(=O)Nc2ccc(N(C)C)cc2)c1OC", "values": [{"measurement": "AC50", "setting": "[1]", "value": "20 µM [falling, single point]"}]}, {"compound": "CCOC(=O)c1c(NC(=O)c2ccc(S(=O)(=O)N(CC(C)C)CC(C)C)cc2)sc2c1CCN(CC)C2", "values": [{"measurement": "AC50", "setting": "[1]", "value": "7.94 µM [falling, full curve, poor fit]"}]}, {"compound": "CCOC(=O)N1CCc2c(sc(NCc3cccs3)c2C(=O)Nc2cc(Cl)ccc2OC)C1", "values": [{"measurement": "AC50", "setting": "[1]", "value": "5.01 µM [falling, partial curve, poor fit]"}]}, {"compound": "COc1cccc(-c2ccc3ncnc(NCCc4c[nH]c5ccc(OC)cc45)c3c2)c1", "values": [{"measurement": "AC50", "setting": "[1]", "value": "3.98 µM [falling, single point] [measured here: IkB-luc green channel]"}]}, {"compound": "COc1ccccc1N1CCN(C(=O)c2ccc3c(c2)N(Cc2cc(C)ccc2C)C(=O)c2ccccc2S3(=O)=O)CC1", "values": [{"measurement": "AC50", "setting": "[1]", "value": "1.26 µM [falling, full curve, poor fit]"}]}, {"compound": "COc1ccccc1CN(Cc1nc2ccccc2c(=O)[nH]1)C(=O)Nc1ccccc1", "values": [{"measurement": "AC50", "setting": "[2]", "value": "15.8 µM [falling, partial curve]"}, {"measurement": "AC50", "setting": "[3]", "value": "12.6 µM [falling, partial curve]"}]}, {"compound": "CC(=O)N(CN1C(=O)c2ccccc2C1=O)c1ccccc1", "values": [{"measurement": "AC50", "setting": "[1]", "value": "6.31 µM [falling, single point]"}]}, {"compound": "CC(=O)c1cccc(NC(=O)[C@H](Cc2ccccc2)N2Cc3ccccc3C2=O)c1", "values": [{"measurement": "AC50", "setting": "[1]", "value": "20 µM [falling, single point]"}]}, {"compound": "O=C(Nc1nc2c(s1)CCCC2)c1ccc(Br)o1", "values": [{"measurement": "AC50", "setting": "[1]", "value": "7.94 µM [falling, full curve]"}]}, {"compound": "COc1ccccc1C(=O)NCCSc1c(C)[nH]c2ccccc12", "values": [{"measurement": "AC50", "setting": "[1]", "value": "12.6 µM [falling, partial curve]"}]}, {"compound": "COc1cccc(NC(=O)CSc2nc(=O)n(Cc3ccccn3)c3c2CCC3)c1", "values": [{"measurement": "AC50", "setting": "[1]", "value": "15.8 µM [falling, partial curve]"}]}, {"compound": "COc1ccc(CCNC(=O)c2ccc3c(c2)N=C(C)c2cc(C)ccc2S3)cc1OC", "values": [{"measurement": "AC50", "setting": "[1]", "value": "25.1 µM [falling, single point]"}]}, {"compound": "CCc1ccc(NC(=O)Cn2c(=O)c(CNc3ccccc3)cc3cc(OC)c(OC)cc32)cc1", "values": [{"measurement": "AC50", "setting": "[1]", "value": "3.98 µM [falling, full curve]"}]}, {"compound": "COc1ccc(-c2nc3ccccc3o2)cc1NC(=O)C(C)(C)Oc1ccc(Br)cc1", "values": [{"measurement": "AC50", "setting": "[1]", "value": "10 µM [rising, partial curve]"}]}, {"compound": "Cc1nn(-c2ccccc2)c(OC(=O)c2ccccc2Cl)c1S(=O)(=O)c1ccccc1", "values": [{"measurement": "AC50", "setting": "[1]", "value": "1.58 µM [falling, full curve]"}]}, {"compound": "Cc1nnc(NC(=O)CCC(=O)NCc2ccco2)s1", "values": [{"measurement": "AC50", "setting": "[1]", "value": "12.6 µM [falling, partial curve]"}]}, {"compound": "CCOc1ccc(NC(=O)CSC2=Nc3ccccc3C3=NC(CCC(=O)NCc4cccs4)C(=O)N23)cc1", "note": "(stereo unspecified)", "values": [{"measurement": "AC50", "setting": "[1]", "value": "1.26 µM [falling, partial curve, poor fit]"}]}, {"compound": "CCc1nn2c(=O)cc(COC(=O)c3ccccc3NC(=O)COc3ccc(F)cc3)nc2s1", "values": [{"measurement": "AC50", "setting": "[1]", "value": "3.98 µM [falling, partial curve]"}]}, {"compound": "CCOC(=O)c1[nH]c(C)c(CCC(=O)Nc2cccc(C(F)(F)F)c2)c1C", "values": [{"measurement": "AC50", "setting": "[1]", "value": "2 µM [falling, partial curve]"}]}, {"compound": "O=C(Nc1ccccc1C(F)(F)F)c1cc(-c2ccc(O)cc2)on1", "values": [{"measurement": "AC50", "setting": "[1]", "value": "20 µM [falling, partial curve]"}]}, {"compound": "COc1ccc(C)cc1NC(=O)CN1C(=O)COc2ccc(S(=O)(=O)N3CCOCC3)cc21", "values": [{"measurement": "AC50", "setting": "[1]", "value": "1 µM [falling, single point]"}]}, {"compound": "Cc1ccc(NC(=O)COc2ccc(-c3nn(C)c(=O)c4ccccc34)cc2)cc1", "values": [{"measurement": "AC50", "setting": "[1]", "value": "20 µM [falling, partial curve]"}]}, {"compound": "CCOC(=O)c1cccc(NC(=O)c2cc3cc4cc(OC)ccc4nc3s2)c1", "values": [{"measurement": "AC50", "setting": "[1]", "value": "31.6 µM [falling, single point]"}]}, {"compound": "Cn1c(=O)[nH]c(=O)c2c1nc(Br)n2CCCCSc1nc2ccccc2o1", "values": [{"measurement": "AC50", "setting": "[1]", "value": "10 µM [falling, partial curve]"}]}, {"compound": "CN(C)c1ccc(CNC(=O)C2CCCN(S(=O)(=O)c3ccc4c(ccn4C)c3)C2)cc1", "note": "(stereo unspecified)", "values": [{"measurement": "AC50", "setting": "[1]", "value": "0.00794 µM [falling, full curve, poor fit]"}]}, {"compound": "Clc1ccc(N2CCN(Cc3c[nH]c4ncccc34)CC2)cc1", "values": [{"measurement": "AC50", "setting": "[2]", "value": "0.631 µM [rising, partial curve, poor fit]"}, {"measurement": "AC50", "setting": "[3]", "value": "5.01 µM [rising, partial curve]"}]}, {"compound": "CCCCn1c(NC(=O)c2ccccc2Cl)c(C#N)c2nc3ccccc3nc21", "values": [{"measurement": "AC50", "setting": "[1]", "value": "10 µM [falling, partial curve]"}]}, {"compound": "Cc1csc(NC(=O)CSc2ncnc3c2cnn3-c2ccccc2Cl)n1", "values": [{"measurement": "AC50", "setting": "[1]", "value": "25.1 µM [falling, partial curve]"}]}]}
